# Test results: the supplement of paper PMC12889115
# The list shows a part of the results. Values are raw readings; no control value is given beside them.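 In the initial screen, polymyxin B was used at a concentration that permeabilizes Salmonella's outer membrane but not its inner membrane. Maximum growth was set by DMSO wells with or without polymyxin B. Since plates varied, data were ranked per plate, and compounds giving the lowest OD600 advanced as hits.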
# System: Salmonella enterica serovar Typhimurium SL1344
# Test: bacterial growth OD600 after 18 h with compound and polymyxin B; higher = more bacterial growth (less inhibition)
# Conditions: 50 µM, Mueller-Hinton broth
compound,measurement,setting,value
COc1cccc(CC2CN(Cc3cccn3-c3cccnc3)CCO2)c1 (stereo not given),bacterial growth OD600,polymyxin B 0.75 µg/mL,0.824
O=C(CCN1CCCO1)N1CCCC(CCc2cccc(F)c2)C1 (stereo not given),bacterial growth OD600,polymyxin B 0.75 µg/mL,0.521
C#CCN(C(=O)CCC1(Cc2ccc(Cl)cc2)CCC(=O)N1)C1CCCCC1 (stereo not given),bacterial growth OD600,polymyxin B 0.75 µg/mL,0.584
CCc1ccc(CN(C)C(=O)c2cc(Cn3ccnc3C(C)C)[nH]n2)nc1,bacterial growth OD600,polymyxin B 1 µg/mL,1.01
COCC(=O)Nc1cccc(-c2nc(CNC(=O)CCc3ccc(OC)c(OC)c3)c(C)o2)c1,bacterial growth OD600,polymyxin B 0.75 µg/mL,0.922
CC(C)=CC(=O)NC1CCCN(Cc2ccc(Cl)cc2)C1 (stereo not given),bacterial growth OD600,polymyxin B 1 µg/mL,1.1
Cc1oc(-c2cc(F)ccc2F)nc1CN(Cc1cnn(C)c1)C(C)C,bacterial growth OD600,polymyxin B 1 µg/mL,0.899
Cc1nc(N2CCCC(C(=O)NCc3cccc(Cl)c3)C2)nc2cc(S(C)(=O)=O)ccc12 (stereo not given),bacterial growth OD600,polymyxin B 0.75 µg/mL,0.008
Cc1nn(C)c(C)c1CN(C(=O)c1ccc(-n2cc(NC(=O)c3cccnc3)cn2)cc1)C1CC1,bacterial growth OD600,polymyxin B 0.75 µg/mL,0.79
O=C(Nc1cccc(-c2cscn2)c1)C1CCN(CCc2ccccc2)CC1,bacterial growth OD600,polymyxin B 1 µg/mL,1.17
CCc1ccc(CN2CCC(C(Cc3ccccc3)N(CC)C(=O)C3CCOCC3)CC2)cc1 (stereo not given),bacterial growth OD600,polymyxin B 0.75 µg/mL,0.744
COc1ccc(CN2CCN(Cc3ccc(C)cc3)C(CCO)C2)cc1 (stereo not given),bacterial growth OD600,polymyxin B 1 µg/mL,0.917
O=C(Nc1ccc(-c2cscn2)cc1)C1CCCN(C(=O)c2cccs2)C1 (stereo not given),bacterial growth OD600,polymyxin B 1 µg/mL,1.04
CO[C@H]1[C@H](NC(=O)c2ccccn2)c2ccccc2C12CCN(C(=O)CCc1c(C)noc1C)CC2,bacterial growth OD600,polymyxin B 0.75 µg/mL,0.888
CCC(C)CN1CCC(Oc2ccc(C(=O)NCCOC)cc2Cl)CC1 (stereo not given),bacterial growth OD600,polymyxin B 1 µg/mL,1.22
COCc1noc(-c2ccc(N(C)Cc3cn(C)nc3C)nc2)n1,bacterial growth OD600,polymyxin B 1 µg/mL,0.961
CN(CCc1ccccn1)Cc1ccc2c(c1)CN(C(=O)CC(c1ccccc1)c1ccco1)CCO2 (stereo not given),bacterial growth OD600,polymyxin B 0.75 µg/mL,0.799
O=C(c1ccsc1)N1CCOc2ccc(C(O)C(c3ccccc3)c3ccccc3)cc2C1 (stereo not given),bacterial growth OD600,polymyxin B 0.75 µg/mL,0.602
Cc1ccsc1C(=O)N1CCc2onc(-c3ccc(Cl)cc3)c2C1,bacterial growth OD600,polymyxin B 0.75 µg/mL,0.452
CCOC(=O)C1(Cc2ccc(F)cc2F)CCCN(C(=O)c2ccc(OC)nc2OC)C1 (stereo not given),bacterial growth OD600,polymyxin B 1 µg/mL,0.931

# Exported as tab-separated lines: two of the compounds above.
compound	measurement	setting	value
COCC(=O)Nc1cccc(-c2nc(CNC(=O)CCc3ccc(OC)c(OC)c3)c(C)o2)c1	bacterial growth OD600	polymyxin B 0.75 µg/mL	0.922
CC(C)=CC(=O)NC1CCCN(Cc2ccc(Cl)cc2)C1 (stereo not given)	bacterial growth OD600	polymyxin B 1 µg/mL	1.1
